Assay results published in patent publication US6838478B2, “Amino acid derivatives and their use as thrombin inhibitors” (AstraZeneca AB, priority 1996, dated 2005).
Structures can show the parent of a compound that is named as a salt. Some results were stated once for a whole list of compounds, not compound by compound.

Biological target: T1, Human thrombin (Homo sapiens, UniProt P00734)
T1 construct: purchased Sigma Chem Co T 6769
Assay: Test A: determination of thrombin clotting time (TT)
Assay type: biochemical
Settings: concentration of inhibitor that doubles the thrombin clotting time for human plasma
Experimental: Determination of Thrombin Clotting Time (TT)
Human thrombin (T 6769, Sigma Chem Co) in buffer solution, pH 7.4, 100 μI, and inhibitor solution, 100 μl, were incubated for one min. Pooled normal citrated human plasma, 100 μl, was then added and the clotting time measured in an automatic device (KC 10, Amelung).
The clotting time in seconds was plotted against the inhibitor concentration, and the IC50TT was determined by interpolation.
IC50TT is the concentration of inhibitor in the test that doubles the thrombin clotting time for human plasma.

With `COc1cccc(C(CO)C(=O)N2CCCC2C(=O)NCc2ccc(C(=N)N)cc2)c1` (single isomer, unassigned) [Example 11, (S- or (R)-3-Methoxyphenyl-CH(CH2OH)—C(O)-Pro-Pab×HOAc] the IC50 was less than 300 nM.

With `CNc1cccc(C(CO)C(=O)N2CCCC2C(=O)NCc2ccc(C(=N)N)cc2)c1` (single isomer, unassigned) [Example 16, (R)- or (S)-3-(Methylamino)phenyl-CH(CH2OH)—C(O)-Pro-Pab×2 HCl] the IC50 was less than 300 nM.

Work on `N=C(N)c1ccc(CNC(=O)C2CCCN2C(=O)C(CO)c2cccc(C(F)(F)F)c2)cc1` (single isomer, unassigned) [Example 19, (S)- or (R)-3-(Trifluoromethyl)phenyl-CH(CHOH)—C(O)-Pro-Pab×HCl] yielded an IC50 of less than 300 nM.

`Cc1cc(Cl)cc(C(CO)C(=O)N2CCCC2C(=O)NCc2ccc(C(=N)N)cc2)c1` (single isomer, unassigned) [Example 21, (R)- or (S)-3-Chloro-5-methylphenyl)-CH(CH2OH)-C(O)-Pro-Pab×HCl] showed an IC50 of less than 300 nM.

Compound `N=C(N)c1ccc(CNC(=O)C2CCCN2C(=O)C(CO)c2cccc(F)c2)cc1` (single isomer, unassigned) [Example 22, (S)- or (R)-3-Fluorophenyl-CH(CH2OH)CO-Pro-Pab×HCl] has an IC50 of less than 300 nM.

`N=C(N)c1ccc(CNC(=O)C2CCCN2C(=O)C(CO)c2cc(C(F)(F)F)cc(C(F)(F)F)c2)cc1` (single isomer, unassigned) [Example 25, (S)- or (R)-3.5-Bis(trifluoromethyl)phenyl-CH(CH2OH)—C(O)-Pro-Pab×HCl] showed an IC50 of less than 300 nM.

For `N=C(N)c1ccc(CNC(=O)C2CCCN2C(=O)C(CO)c2cccc3ccccc23)cc1` (single isomer, unassigned) [Example 30, (S)- or (R)-3-(1-Naphthyl)-CH2OH)—C(O)-Pro-Pab], the IC50 was less than 300 nM.

`Cc1ccc(C)c(C(CO)C(=O)N2CCCC2C(=O)NCc2ccc(C(=N)N)cc2)c1` (single isomer, unassigned) [Example 34, (S)- or (R)-2.5-Dimethylphenyl-CH—(CH2OH)—C(O)-Pro-Pab×HOAc] was tested, and the IC50 was less than 300 nM.

`COc1cc(C(CO)C(=O)N2CCCC2C(=O)NCc2ccc(C(=N)N)cc2)ccc1O` (single isomer, unassigned) [Example 35, (S)- or (R)-4-Hydroxy-3-methoxyphenyl-CH(CH2OH)—C(O)-Pro-Pab×HCl] was tested, and the IC50 was less than 300 nM.

Work on `N=C(N)c1ccc(CNC(=O)C2CCCN2C(=O)C(CO)c2cc(Cl)cc(Cl)c2)cc1` (single isomer, unassigned) [Example 36, (S)- or (R)-3,5-Dichlorophenyl-CH(CH2OH)—C(O)-Pro-Pab×HOAc] yielded an IC50 of less than 300 nM.

For `COc1cccc(C(CO)C(=O)N2CCCC2C(=O)NCc2ccc(C(=N)N)cc2)c1OC` (single isomer, unassigned) [Example 37, (S)- or (R)-2.3-Dimethoxyphenyl-CH(CH2OH)—C(O)-Pro-Pab×HOAc], the IC50 was less than 300 nM.

Work on `COc1cc(Cl)cc(C(CO)C(=O)N2CCCC2C(=O)NCc2ccc(C(=N)N)cc2)c1` (single isomer, unassigned) [Example 38, (S)- or (R)-3-Methoxy-5-chlorophenyl-CH(CH2OH)—C(O)-Pro-Pab×HCl] yielded an IC50 of less than 300 nM.

For `COc1ccc(C)c(C(CO)C(=O)N2CCCC2C(=O)NCc2ccc(C(=N)N)cc2)c1` (single isomer, unassigned) [Example 39, (S)- or (R)-2-Methyl-5-methoxyphenyl-CH(CH2OH)—C(O)-Pro-Pab×HOAc], the IC50 was less than 300 nM.

`Cc1cccc(C(CO)C(=O)N2CCC2C(=O)NCc2ccc(C(=N)N)cc2)c1Cl` (single isomer, unassigned) [Example 42, (S)- or (R)-2-Chloro-3-methylphenyl-CH(CH2OH)—C(O)-Aze-Pab×HOAc] was tested, and the IC50 was less than 300 nM.

Work on `N=C(N)c1ccc(CNC(=O)C2CCCN2C(=O)C(CO)c2cccc3c2OCO3)cc1` (single isomer, unassigned) [Example 43, (S)- or (R)-2,3-(Methylenedioxypenyl)CH(CH2OH)—C(O)-Pro-Pab×HOAc] yielded an IC50 of less than 300 nM.

`N=C(N)c1ccc(CNC(=O)C2CCN2C(=O)C(CO)c2ccccc2)cc1` [Example 1, (R)- and (S)-PhCH(CH2OH)—C(O)-Aze-Pab×HCl] gave an IC50 of less than 300 nM.

Compound `COc1cccc(C(CO)C(=O)N2CCC2C(=O)NCc2ccc(C(=N)N)cc2)c1` [Example 2, (R)- and (S)-3-Methoxyphenyl-CH(CH2OH)—C(O)-Aze-Pab×HOAc] has an IC50 of less than 300 nM.

`COc1ccc(C(CO)C(=O)N2CCC2C(=O)NCc2ccc(C(=N)N)cc2)cc1OC` [Example 3, (R,S)-3,4-Dimethoxyphenyl-CH(CH2OH)—C(O)-Aze-Pab×HOAc] gave an IC50 of less than 300 nM.

`N=C(N)c1ccc(CNC(=O)C2CCN2C(=O)C(CO)c2ccc3ccccc3c2)cc1` [Example 4, (R)- and (S)-2-Naphthyl-CH(CH2OH)—C(O)-Aze-Pab×HOAc] showed an IC50 of less than 300 nM.

`N=C(N)N1CCC(CNC(=O)C2CCN2C(=O)C(CO)c2ccccc2)CC1` [Example 5, (R)- and (S)-PhCH(CH2OH)—C(O)-Aze-Pig×HOAc] was tested, and the IC50 was less than 300 nM.

With `COc1ccc(OC)c(C(CO)C(=O)N2CCC2C(=O)NCc2ccc(C(=N)N)cc2)c1` [Example 7, (R)- and (S)-2.5-Dimethoxyphenyl-CH(CH2OH)—C(O)-Aze-Pab×HOAc] the IC50 was less than 300 nM.

Compound `N=C(N)c1ccc(CNC(=O)C2CCCN2C(=O)C(CO)c2cccc(N)c2)cc1` [Example 12, (R,S)-3-Aminophenyl-CH(CH2OH)—C(O)-Pro-Pab×HOAc] has an IC50 of less than 300 nM.

Work on `Cc1cc(C)cc(C(CO)C(=O)N2CCC2C(=O)NCc2ccc(C(=N)N)cc2)c1` [Example 18, (R,S)-3.5-Dimethylphenyl-CH(CH2OH)—C(O)-Aze-Pab×HOAc] yielded an IC50 of less than 300 nM.

For `N=C(N)c1ccc(CNC(=O)C2CCCN2C(=O)C(CO)c2cccc(O)c2)cc1` [Example 20, (R,S)-3-Hydroxyphenyl-CH(CH2OH)—C(O)-Pro-Pab×HOAc], the IC50 was less than 300 nM.

With `Cc1cc(C)cc(C(CO)C(=O)N2CCCC2C(=O)NCc2ccc(C(=N)N)cc2)c1` [Example 24, (R,S)-3.5-Dimethylphenyl-CH(CH2OH)—C(O)-Pro-Pab×HOAc] the IC50 was less than 300 nM.

Work on `COc1ccc(OC)c(C(CO)C(=O)N2CCCC2C(=O)NCc2ccc(C(=N)N)cc2)c1` [Example 27, (R,S)-(2.5-Dimethoxyphenyl)—CH(CH2OH)—C(O)-Pro-Pab×HOAc] yielded an IC50 of less than 300 nM.

`COc1cc(OC)cc(C(CO)C(=O)N2CCCC2C(=O)NCc2ccc(C(=N)N)cc2)c1` [Example 28, (R,S)-(3.5-Dimethoxyphenyl)-CH(CH2OH)—C(O)-Pro-Pab×HCl] showed an IC50 of less than 300 nM.

Compound `N=C(N)c1ccc(CNC(=O)C2CCCN2C(=O)C(CO)c2ccc3c(c2)OCO3)cc1` [Example 29, (R,S)-3,4-(Methylenedioxyphenyl)-CH(CH2OH)—C(O)-Pro-Pab×HCl] has an IC50 of less than 300 nM.

With `COc1cc(OC)cc(C(CO)C(=O)N2CCC2C(=O)NCc2ccc(C(=N)N)cc2)c1` [Example 31, (R,S)-3,5-Dimethoxyphenyl-CH(CH2OH)—C(O)-Aze-Pab×HOAc] the IC50 was less than 300 nM.

In the case of `N=C(N)c1ccc(CNC(=O)C2CCN2C(=O)C(CO)c2cc(N)ccc2Cl)cc1` [Example 32, (R,S)-2-Chloro-5-aminophenyl-CH(CH2OH)—C(O)-Aze-Pab×HOAc], the IC50 is reported as less than 300 nM.

Compound `COCC(C)(C(=O)N1CCCC1C(=O)NCc1ccc(C(=N)N)cc1)c1ccccc1` [Example 41, (R,S)-Ph-C(Me)(CH2OMe)-C(O)-Pro-Pab×HCl] has an IC50 of less than 300 nM.

“(R,S)-3-Methoxy-5-methylphenyl-CH(CH2OH)—C(O)-Pro-Pab×HCl [Example 26]” was tested, and the IC50 was less than 300 nM.

“(S)- and (R)-3-Chlorophenyl-CH(CH2OH)—C(O)-Pro-Pab×HOAc [Example 23]” was tested, and the IC50 was less than 300 nM.

“(S)- and (R)-3-Methylphenyl-CH(CH2OH)C(O)-Aze-Pab×HOAc [Example 33]” gave an IC50 of less than 300 nM.

Work on “(S)- or (R)-3-Methoxyphenyl-CH(CH2OH)—C(O)-Pro-Pab-OC(O)CH, [Example 15]” yielded an IC50 greater than 1000 nM.

In the case of “(S)-PhCH(CH2OH)—C(O)-Pro-Pab×HCl [Example 17]”, the IC50 is reported as less than 300 nM.
